For test [1], the target named is cyclin-dependent kinase (CDK) 8 (human) (UniProt P49336). The experiment in a line: affinity purification with mass spectrometry + proximity labelling; bait-normalised prey PSM values of AP-MS and of BioID of the same MAC-tagged bait integrated to a relative distance between bait and prey.
For test [2], the target named is mediator of RNA polymerase II transcription subunit 13 (human) (UniProt Q9UHV7). The description is as above.
Test [3] addresses Prelamin-A/C (human) (UniProt P02545). The experiment in a line: proximity labelling; BioID: MAC-tagged bait in stable Flp-In T-REx 293 cells, tetracycline and 50 uM biotin 24 h; lysis buffer 2 (as buffer 1 with 0.1% SDS), sonication, benzonase; biotinylated proteins on Strep-Tactin beads; LC-MS; SAINT and CRAPome filter.

Sequences of proteins named here, by UniProt entry; tags and fusion partners are left off. Residues count along the entry.
UniProt P49336: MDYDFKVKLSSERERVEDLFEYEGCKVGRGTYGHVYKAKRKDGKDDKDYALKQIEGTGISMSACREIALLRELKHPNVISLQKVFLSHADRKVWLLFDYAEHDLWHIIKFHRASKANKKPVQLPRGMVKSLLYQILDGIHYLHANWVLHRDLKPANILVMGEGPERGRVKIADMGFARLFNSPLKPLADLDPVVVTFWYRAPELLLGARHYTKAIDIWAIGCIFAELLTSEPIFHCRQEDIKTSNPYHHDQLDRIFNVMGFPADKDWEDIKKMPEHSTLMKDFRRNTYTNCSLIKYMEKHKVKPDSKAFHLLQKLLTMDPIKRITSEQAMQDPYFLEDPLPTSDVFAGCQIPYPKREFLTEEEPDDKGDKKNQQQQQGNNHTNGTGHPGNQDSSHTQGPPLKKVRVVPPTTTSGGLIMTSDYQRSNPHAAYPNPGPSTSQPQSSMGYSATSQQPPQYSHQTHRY
UniProt Q9UHV7: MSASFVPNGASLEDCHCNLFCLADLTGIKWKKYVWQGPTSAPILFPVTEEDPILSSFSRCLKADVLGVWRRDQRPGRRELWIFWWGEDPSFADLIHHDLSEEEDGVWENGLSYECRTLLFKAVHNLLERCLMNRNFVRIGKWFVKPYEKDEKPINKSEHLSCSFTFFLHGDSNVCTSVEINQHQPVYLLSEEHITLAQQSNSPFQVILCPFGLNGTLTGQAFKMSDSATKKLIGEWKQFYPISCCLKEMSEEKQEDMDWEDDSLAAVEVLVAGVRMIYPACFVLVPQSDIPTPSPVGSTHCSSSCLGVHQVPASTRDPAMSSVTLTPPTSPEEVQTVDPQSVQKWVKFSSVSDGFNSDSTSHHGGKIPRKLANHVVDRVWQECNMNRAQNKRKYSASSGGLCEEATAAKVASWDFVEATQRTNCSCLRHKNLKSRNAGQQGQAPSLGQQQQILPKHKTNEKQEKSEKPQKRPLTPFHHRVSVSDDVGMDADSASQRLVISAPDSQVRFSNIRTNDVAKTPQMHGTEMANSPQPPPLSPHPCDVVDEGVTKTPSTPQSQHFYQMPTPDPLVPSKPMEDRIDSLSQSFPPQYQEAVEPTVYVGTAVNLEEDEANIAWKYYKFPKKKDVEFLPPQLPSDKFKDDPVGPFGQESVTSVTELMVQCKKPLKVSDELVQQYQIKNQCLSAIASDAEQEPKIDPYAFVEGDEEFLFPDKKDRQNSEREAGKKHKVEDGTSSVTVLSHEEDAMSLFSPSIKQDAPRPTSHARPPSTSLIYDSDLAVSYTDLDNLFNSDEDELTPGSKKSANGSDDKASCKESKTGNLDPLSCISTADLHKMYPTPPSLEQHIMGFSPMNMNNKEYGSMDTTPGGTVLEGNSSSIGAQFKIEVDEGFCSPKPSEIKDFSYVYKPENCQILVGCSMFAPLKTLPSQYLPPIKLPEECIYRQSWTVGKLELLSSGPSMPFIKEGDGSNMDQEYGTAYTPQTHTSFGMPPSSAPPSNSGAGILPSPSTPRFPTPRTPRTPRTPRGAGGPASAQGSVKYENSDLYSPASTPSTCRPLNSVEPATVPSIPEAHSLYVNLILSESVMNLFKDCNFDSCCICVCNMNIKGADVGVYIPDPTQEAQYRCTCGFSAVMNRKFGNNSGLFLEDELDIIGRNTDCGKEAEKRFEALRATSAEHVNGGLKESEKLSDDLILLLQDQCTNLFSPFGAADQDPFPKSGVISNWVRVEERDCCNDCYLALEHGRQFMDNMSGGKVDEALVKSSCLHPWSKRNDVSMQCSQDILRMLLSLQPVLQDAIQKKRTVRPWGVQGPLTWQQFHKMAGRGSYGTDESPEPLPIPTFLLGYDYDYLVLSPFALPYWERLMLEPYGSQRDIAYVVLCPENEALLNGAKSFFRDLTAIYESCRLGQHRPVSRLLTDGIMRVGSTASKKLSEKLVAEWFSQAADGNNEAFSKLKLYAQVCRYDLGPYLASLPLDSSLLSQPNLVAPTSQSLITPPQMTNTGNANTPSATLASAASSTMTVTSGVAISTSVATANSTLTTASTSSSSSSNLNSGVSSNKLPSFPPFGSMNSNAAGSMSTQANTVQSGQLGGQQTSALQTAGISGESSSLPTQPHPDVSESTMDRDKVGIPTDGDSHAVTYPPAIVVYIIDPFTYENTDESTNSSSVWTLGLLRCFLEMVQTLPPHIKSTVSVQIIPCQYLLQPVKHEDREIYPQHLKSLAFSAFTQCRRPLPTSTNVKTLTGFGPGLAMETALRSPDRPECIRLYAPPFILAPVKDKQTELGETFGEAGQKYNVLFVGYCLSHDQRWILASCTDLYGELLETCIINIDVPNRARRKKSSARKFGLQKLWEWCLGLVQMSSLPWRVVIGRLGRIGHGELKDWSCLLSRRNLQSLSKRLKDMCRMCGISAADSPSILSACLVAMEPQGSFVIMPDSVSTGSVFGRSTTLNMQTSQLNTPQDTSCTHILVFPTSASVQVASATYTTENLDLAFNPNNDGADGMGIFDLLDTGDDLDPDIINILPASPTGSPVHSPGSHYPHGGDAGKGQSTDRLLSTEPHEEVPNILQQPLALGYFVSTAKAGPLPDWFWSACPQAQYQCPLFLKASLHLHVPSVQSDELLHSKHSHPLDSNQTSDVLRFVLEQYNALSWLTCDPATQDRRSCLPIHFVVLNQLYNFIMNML
UniProt P02545, residues 1-646: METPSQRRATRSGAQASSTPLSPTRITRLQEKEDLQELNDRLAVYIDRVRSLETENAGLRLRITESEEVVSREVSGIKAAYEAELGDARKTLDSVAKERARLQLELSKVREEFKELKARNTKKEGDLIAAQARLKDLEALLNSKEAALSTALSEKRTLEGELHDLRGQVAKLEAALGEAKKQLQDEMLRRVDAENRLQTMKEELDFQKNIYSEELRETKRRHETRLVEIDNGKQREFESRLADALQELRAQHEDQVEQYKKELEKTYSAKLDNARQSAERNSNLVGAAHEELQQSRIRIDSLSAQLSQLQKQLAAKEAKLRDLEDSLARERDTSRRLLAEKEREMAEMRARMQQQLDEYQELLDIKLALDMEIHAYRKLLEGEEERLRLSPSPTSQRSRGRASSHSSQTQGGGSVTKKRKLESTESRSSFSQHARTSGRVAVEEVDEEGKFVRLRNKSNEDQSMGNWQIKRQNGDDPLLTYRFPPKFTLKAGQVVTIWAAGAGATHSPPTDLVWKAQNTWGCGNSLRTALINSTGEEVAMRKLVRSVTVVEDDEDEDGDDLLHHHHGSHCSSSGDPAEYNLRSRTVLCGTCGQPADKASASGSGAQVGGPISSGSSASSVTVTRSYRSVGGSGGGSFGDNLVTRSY
UniProt Q15648: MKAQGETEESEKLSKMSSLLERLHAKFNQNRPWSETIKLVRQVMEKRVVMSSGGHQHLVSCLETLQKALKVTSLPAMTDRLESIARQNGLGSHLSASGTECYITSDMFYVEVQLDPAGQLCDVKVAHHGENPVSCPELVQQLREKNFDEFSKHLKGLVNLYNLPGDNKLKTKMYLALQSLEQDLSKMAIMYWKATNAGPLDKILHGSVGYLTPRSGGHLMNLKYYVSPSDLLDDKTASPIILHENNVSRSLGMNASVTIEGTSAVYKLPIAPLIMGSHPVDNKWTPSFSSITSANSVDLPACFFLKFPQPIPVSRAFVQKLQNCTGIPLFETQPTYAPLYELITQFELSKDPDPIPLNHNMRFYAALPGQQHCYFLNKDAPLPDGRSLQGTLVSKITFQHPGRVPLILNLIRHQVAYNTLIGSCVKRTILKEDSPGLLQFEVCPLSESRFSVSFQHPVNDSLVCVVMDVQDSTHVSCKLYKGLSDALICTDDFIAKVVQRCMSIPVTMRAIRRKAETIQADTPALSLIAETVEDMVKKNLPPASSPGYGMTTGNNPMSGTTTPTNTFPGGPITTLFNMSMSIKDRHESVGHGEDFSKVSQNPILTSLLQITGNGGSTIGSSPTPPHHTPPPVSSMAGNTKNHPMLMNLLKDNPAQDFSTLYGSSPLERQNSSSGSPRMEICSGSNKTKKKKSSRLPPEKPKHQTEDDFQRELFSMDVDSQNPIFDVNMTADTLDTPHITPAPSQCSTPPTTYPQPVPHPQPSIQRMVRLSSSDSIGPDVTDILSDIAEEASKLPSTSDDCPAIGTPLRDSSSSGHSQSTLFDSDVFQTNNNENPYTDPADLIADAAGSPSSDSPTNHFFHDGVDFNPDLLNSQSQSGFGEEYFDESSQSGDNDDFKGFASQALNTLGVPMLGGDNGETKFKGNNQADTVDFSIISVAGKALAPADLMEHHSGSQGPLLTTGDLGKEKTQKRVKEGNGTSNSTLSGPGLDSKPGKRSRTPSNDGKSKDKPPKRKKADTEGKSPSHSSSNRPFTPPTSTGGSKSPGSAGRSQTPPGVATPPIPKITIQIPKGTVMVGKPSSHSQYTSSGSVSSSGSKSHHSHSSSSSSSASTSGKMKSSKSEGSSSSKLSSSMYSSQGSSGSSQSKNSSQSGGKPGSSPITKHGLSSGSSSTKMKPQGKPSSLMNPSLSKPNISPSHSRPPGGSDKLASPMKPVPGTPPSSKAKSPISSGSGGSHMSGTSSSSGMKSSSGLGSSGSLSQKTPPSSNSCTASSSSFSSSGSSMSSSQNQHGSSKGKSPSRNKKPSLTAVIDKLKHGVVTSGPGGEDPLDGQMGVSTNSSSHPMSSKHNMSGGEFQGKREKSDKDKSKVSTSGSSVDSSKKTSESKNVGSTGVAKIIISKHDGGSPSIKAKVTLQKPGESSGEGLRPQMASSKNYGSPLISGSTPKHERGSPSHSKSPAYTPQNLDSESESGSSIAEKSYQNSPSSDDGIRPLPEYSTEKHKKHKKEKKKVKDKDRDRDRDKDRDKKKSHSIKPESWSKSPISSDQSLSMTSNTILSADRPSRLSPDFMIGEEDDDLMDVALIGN
UniProt Q96RN5: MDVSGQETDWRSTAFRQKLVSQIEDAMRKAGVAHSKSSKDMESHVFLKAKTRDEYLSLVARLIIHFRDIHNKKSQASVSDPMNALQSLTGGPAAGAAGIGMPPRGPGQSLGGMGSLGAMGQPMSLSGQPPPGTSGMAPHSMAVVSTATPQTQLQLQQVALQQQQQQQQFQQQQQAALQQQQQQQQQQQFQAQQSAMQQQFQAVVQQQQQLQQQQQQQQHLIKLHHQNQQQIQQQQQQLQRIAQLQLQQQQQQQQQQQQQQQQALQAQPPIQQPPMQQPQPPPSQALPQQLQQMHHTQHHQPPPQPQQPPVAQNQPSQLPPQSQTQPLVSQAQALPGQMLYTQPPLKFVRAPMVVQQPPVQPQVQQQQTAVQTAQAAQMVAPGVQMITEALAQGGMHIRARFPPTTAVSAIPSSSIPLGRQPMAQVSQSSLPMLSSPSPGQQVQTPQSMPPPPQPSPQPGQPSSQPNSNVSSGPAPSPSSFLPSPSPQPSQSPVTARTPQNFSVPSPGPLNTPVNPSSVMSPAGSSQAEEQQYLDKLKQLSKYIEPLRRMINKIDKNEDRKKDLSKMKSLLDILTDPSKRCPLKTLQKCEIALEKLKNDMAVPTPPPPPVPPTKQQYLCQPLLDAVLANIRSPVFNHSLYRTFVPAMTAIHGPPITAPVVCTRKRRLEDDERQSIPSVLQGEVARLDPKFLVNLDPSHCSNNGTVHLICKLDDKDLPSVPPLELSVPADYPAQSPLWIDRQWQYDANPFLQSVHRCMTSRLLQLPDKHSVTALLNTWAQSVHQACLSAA

Results are given in words; binding and its absence hold for the method and conditions named. Binding seen in cells or lysates may run through a third protein. These calls come from enrichment with a bait or labelling near it, and not all partners need be listed.

For the molecule MED1 (from UniProt Q15648 1-1581), the binding result in test [1] and in test [2] was “binds” each time.
On to MED14 (from UniProt O60244 1-1454), for which the binding result in test [1] and in test [2] was “binds” each time.
Consider MED15 (from UniProt Q96RN5 1-788), for which the binding entry in test [1] and in test [2] was “binds” throughout.

B1: MED4 (protein, UniProt Q9NPJ6 1-270)
chain: MAASSSGEKEKERLGGGLGVAGGNSTRERLLSALEDLEVLSRELIEMLAISRNQKLLQAGEENQVLELLIHRDGEFQELMKLALNQGKIHHEMQVLEKEVEKRDSDIQQLQKQLKEAEQILATAVYQAKEKLKSIEKARKGAISSEEIIKYAHRISASNAVCAPLTWVPGDPRRPYPTDLEMRSGLLGQMNNPSTNGVNGHLPGDALAAGRLPDVLAPQYPWQSNDMSMNMLPPNHSSDFLLEPPGHNKENEDDVEIMSTDSSSSSSESD
Take B1: the binding result in test [1] and in test [2] was “binds” each time.

B2: MED16 (protein, UniProt Q9Y2X0 1-877)
chain: MCDLRRPAAGGMMDLAYVCEWEKWSKSTHCPSVPLACAWSCRNLIAFTMDLRSDDQDLTRMIHILDTEHPWDLHSIPSEHHEAITCLEWDQSGSRLLSADADGQIKCWSMADHLANSWESSVGSLVEGDPIVALSWLHNGVKLALHVEKSGASSFGEKFSRVKFSPSLTLFGGKPMEGWIAVTVSGLVTVSLLKPSGQVLTSTESLCRLRGRVALADIAFTGGGNIVVATADGSSASPVQFYKVCVSVVSEKCRIDTEILPSLFMRCTTDLNRKDKFPAITHLKFLARDMSEQVLLCASSQTSSIVECWSLRKEGLPVNNIFQQISPVVGDKQPTILKWRILSATNDLDRVSAVALPKLPISLTNTDLKVASDTQFYPGLGLALAFHDGSVHIVHRLSLQTMAVFYSSAAPRPVDEPAMKRPRTAGPAVHLKAMQLSWTSLALVGIDSHGKLSVLRLSPSMGHPLEVGLALRHLLFLLEYCMVTGYDWWDILLHVQPSMVQSLVEKLHEEYTRQTAALQQVLSTRILAMKASLCKLSPCTVTRVCDYHTKLFLIAISSTLKSLLRPHFLNTPDKSPGDRLTEICTKITDVDIDKVMINLKTEEFVLDMNTLQALQQLLQWVGDFVLYLLASLPNQGSLLRPGHSFLRDGTSLGMLRELMVVIRIWGLLKPSCLPVYTATSDTQDSMSLLFRLLTKLWICCRDEGPASEPDEALVDECCLLPSQLLIPSLDWLPASDGLVSRLQPKQPLRLQFGRAPTLPGSAATLQLDGLARAPGQPKIDHLRRLHLGACPTEECKACTRCGCVTMLKSPNRTTAVKQWEQRWIKNCLAVEGRGPDACVTSRASEEAPAFVQLGPQSTHHSPRTPRSLDHLHPEDRP
On to B2, for which the binding result in test [1] and in test [2] was “binds” in each case.

B3: MED24 (protein, UniProt O75448 1-989)
chain: MKVVNLKQAILQAWKERWSDYQWAINMKKFFPKGATWDILNLADALLEQAMIGPSPNPLILSYLKYAISSQMVSYSSVLTAISKFDDFSRDLCVQALLDIMDMFCDRLSCHGKAEECIGLCRALLSALHWLLRCTAASAERLREGLEAGTPAAGEKQLAMCLQRLEKTLSSTKNRALLHIAKLEEASSWTAIEHSLLKLGEILANLSNPQLRSQAEQCGTLIRSIPTMLSVHAEQMHKTGFPTVHAVILLEGTMNLTGETQSLVEQLTMVKRMQHIPTPLFVLEIWKACFVGLIESPEGTEELKWTAFTFLKIPQVLVKLKKYSHGDKDFTEDVNCAFEFLLKLTPLLDKADQRCNCDCTNFLLQECGKQGLLSEASVNNLMAKRKADREHAPQQKSGENANIQPNIQLILRAEPTVTNILKTMDADHSKSPEGLLGVLGHMLSGKSLDLLLAAAAATGKLKSFARKFINLNEFTTYGSEESTKPASVRALLFDISFLMLCHVAQTYGSEVILSESRTGAEVPFFETWMQTCMPEEGKILNPDHPCFRPDSTKVESLVALLNNSSEMKLVQMKWHEACLSISAAILEILNAWENGVLAFESIQKITDNIKGKVCSLAVCAVAWLVAHVRMLGLDEREKSLQMIRQLAGPLFSENTLQFYNERVVIMNSILERMCADVLQQTATQIKFPSTGVDTMPYWNLLPPKRPIKEVLTDIFAKVLEKGWVDSRSIHIFDTLLHMGGVYWFCNNLIKELLKETRKEHTLRAVELLYSIFCLDMQQVTLVLLGHILPGLLTDSSKWHSLMDPPGTALAKLAVWCALSSYSSHKGQASTRQKKRHREDIEDYISLFPLDDVQPSKLMRLLSSNEDDANILSSPTDRSMSSSLSASQLHTVNMRDPLNRVLANLFLLISSILGSRTAGPHTQFVQWFMEECVDCLEQGGRGSVLQFMPFTTVSELVKVSAMSSPKVVLAITDLSLPLGRQVAAKAIAAL
Regarding B3, the binding entry in test [1] and in test [2] was “binds” throughout.

B4: MED6 (protein, UniProt O75586 1-246)
chain: MAAVDIRDNLLGISWVDSSWIPILNSGSVLDYFSERSNPFYDRTCNNEVVKMQRLTLEHLNQMVGIEYILLHAQEPILFIIRKQQRQSPAQVIPLADYYIIAGVIYQAPDLGSVINSRVLTAVHGIQSAFDEAMSYCRYHPSKGYWWHFKDHEEQDKVRPKAKRKEEPSSIFQRQRVDALLLDLRQKFPPKFVQLKPGEKPVPVDQTKKEAEPIPETVKPEEKETTKNVQQTVSAKGPPEKRMRLQ
In the case of B4, the binding result in test [1] and in test [2] was “binds” each time.

B5: NUP37 (protein, UniProt Q8NFH4 1-326)
chain: MKQDASRNAAYTVDCEDYVHVVEFNPFENGDSGNLIAYGGNNYVVIGTCTFQEEEADVEGIQYKTLRTFHHGVRVDGIAWSPETRLDSLPPVIKFCTSAADMKIRLFTSDLQDKNEYKVLEGHTDFINGLVFDPKEGQEIASVSDDHTCRIWNLEGVQTAHFVLHSPGMSVCWHPEETFKLMVAEKNGTIRFYDLLAQQAILSLESEQVPLMSAHWCLKNTFKVGAVAGNDWLIWDITRSSYPQNKRPVHMDRACLFRWSTISENLFATTGYPGKMASQFQIHHLGHPQPILMGSVAVGSGLSWHRTLPLCVIGGDHKLLFWVTEV
Regarding B5, the binding result in test [3] is reported as “binds”.

B6: NUP85 (protein, UniProt Q9BW27 1-656)
chain: MEELDGEPTVTLIPGVNSKKNQMYFDWGPGEMLVCETSFNKKEKSEMVPSCPFIYIIRKDVDVYSQILRKLFNESHGIFLGLQRIDEELTGKSRKSQLVRVSKNYRSVIRACMEEMHQVAIAAKDPANGRQFSSQVSILSAMELIWNLCEILFIEVAPAGPLLLHLLDWVRLHVCEVDSLSADVLGSENPSKHDSFWNLVTILVLQGRLDEARQMLSKEADASPASAGICRIMGDLMRTMPILSPGNTQTLTELELKWQHWHEECERYLQDSTFATSPHLESLLKIMLGDEAALLEQKELLSNWYHFLVTRLLYSNPTVKPIDLHYYAQSSLDLFLGGESSPEPLDNILLAAFEFDIHQVIKECSIALSNWWFVAHLTDLLDHCKLLQSHNLYFGSNMREFLLLEYASGLFAHPSLWQLGVDYFDYCPELGRVSLELHIERIPLNTEQKALKVLRICEQRQMTEQVRSICKILAMKAVRNNRLGSALSWSIRAKDAAFATLVSDRFLRDYCERGCFSDLDLIDNLGPAMMLSDRLTFLGKYREFHRMYGEKRFADAASLLLSLMTSRIAPRSFWMTLLTDALPLLEQKQVIFSAEQTYELMRCLEDLTSRRPVHGESDTEQLQDDDIETTKVEMLRLSLARNLARAIIREGSLEGS
For B6, the binding entry in test [3] was “binds”.

B7: NUP43 (protein, UniProt Q8NFH3 1-380)
chain: MEEIYAKFVSQKISKTRWRPLPPGSLQTAETFATGSWDNEENYISLWSIGDFGNLDSDGGFEGDHQLLCDIRHHGDVMDLQFFDQERIVAASSTGCVTVFLHHPNNQTLSVNQQWTTAHYHTGPGSPSYSSAPCTGVVCNNPEIVTVGEDGRINLFRADHKEAVRTIDNADSSTLHAVTFLRTPEILTVNSIGQLKIWDFRQQGNEPSQILSLTGDRVPLHCVDRHPNQQHVVATGGQDGMLSIWDVRQGTMPVSLLKAHEAEMWEVHFHPSNPEHLFTCSEDGSLWHWDASTDVPEKSSLFHQGGRSSTFLSHSISNQANVHQSVISSWLSTDPAKDRIEITSLLPSRSLSVNTLDVLGPCLVCGTDAEAIYVTRHLFS
B7: the binding result in test [3] was “binds”.

B8: MED27 (protein, UniProt Q6P2C8 1-311)
chain: MADVINVSVNLEAFSQAISAIQALRSSVSRVFDCLKDGMRNKETLEGREKAFIAHFQDNLHSVNRDLNELERLSNLVGKPSENHPLHNSGLLSLDPVQDKTPLYSQLLQAYKWSNKLQYHAGLASGLLNQQSLKRSANQMGVSAKRRPKAQPTTLVLPPQYVDDVISRIDRMFPEMSIHLSRPNGTSAMLLVTLGKVLKVIVVMRSLFIDRTIVKGYNENVYTEDGKLDIWSKSNYQVFQKVTDHATTALLHYQLPQMPDVVVRSFMTWLRSYIKLFQAPCQRCGKFLQDGLPPTWRDFRTLEAFHDTCRQ
In the case of B8, the binding entry in test [1] and in test [2] was “binds” throughout.

The values above are taken from article PMC5864832.
